{"source": "PubChem BioAssay AID1259308 – NCATS – 2017", "assay": "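Candidate targets for better recombinant protein yield in mammalian cells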 (primary screen)", "system": "human HEK293 embryonic kidney cells stably expressing firefly luciferase (HEK-CMV-Luc2-Hygro)", "reagent": "single siRNA against human genes, 0.8 pmol siRNA per well", "duration": "72 h", "measured": "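Reporter luminescence and viable-cell signal on separate replicate plates, given as percent of non-targeting control and median/MAD z-scores, plus per-cell luciferase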", "reading the numbers": "total luciferase, z-score: higher = more reporter protein produced", "active means": "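An siRNA counts as active if its total luciferase robust z-score exceeds 3; genes with two or more such siRNAs out of three were retested with fresh siRNAs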", "calls": "active = raised luciferase; inactive = no rise", "note": "The deposit covers about 59,000 reagents; shown is a random part of them. About 1,510 of them (2.6%) count as active. 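Calls use total luciferase alone and ignore viability, so some active siRNAs may act by altering cell number.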 Reagents against one gene are numbered here. Further read-outs or replicates are left out here."}
The opening 2 records as a preview:
{"target": "CTH (cystathionine gamma-lyase)", "reagent no.": 1, "total luciferase, z-score": 3.86, "outcome": "active"}
{"target": "CTH (cystathionine gamma-lyase)", "reagent no.": 2, "total luciferase, z-score": 0.77, "outcome": "inactive"}

The listing, repeating the preview:
{"target": "CTH (cystathionine gamma-lyase)", "reagent no.": 1, "total luciferase, z-score": 3.86, "outcome": "active"}
{"target": "CTH (cystathionine gamma-lyase)", "reagent no.": 2, "total luciferase, z-score": 0.77, "outcome": "inactive"}
{"target": "CTH (cystathionine gamma-lyase)", "reagent no.": 3, "total luciferase, z-score": 1.26, "outcome": "inactive"}
{"target": "VN1R2 (vomeronasal 1 receptor 2)", "reagent no.": 1, "total luciferase, z-score": 0.218, "outcome": "inactive"}
{"target": "VN1R2 (vomeronasal 1 receptor 2)", "reagent no.": 2, "total luciferase, z-score": -0.273, "outcome": "inactive"}
{"target": "VN1R2 (vomeronasal 1 receptor 2)", "reagent no.": 3, "total luciferase, z-score": -0.977, "outcome": "inactive"}
{"target": "TIMP2 (TIMP metallopeptidase inhibitor 2)", "reagent no.": 1, "total luciferase, z-score": 0.131, "outcome": "inactive"}
{"target": "TIMP2 (TIMP metallopeptidase inhibitor 2)", "reagent no.": 2, "total luciferase, z-score": -0.982, "outcome": "inactive"}
{"target": "TIMP2 (TIMP metallopeptidase inhibitor 2)", "reagent no.": 3, "total luciferase, z-score": -1.25, "outcome": "inactive"}
{"target": "C16orf46 (chromosome 16 open reading frame 46)", "reagent no.": 1, "total luciferase, z-score": 1.2, "outcome": "inactive"}
{"target": "C16orf46 (chromosome 16 open reading frame 46)", "reagent no.": 2, "total luciferase, z-score": -0.068, "outcome": "inactive"}
{"target": "C16orf46 (chromosome 16 open reading frame 46)", "reagent no.": 3, "total luciferase, z-score": 0.845, "outcome": "inactive"}
{"target": "ANKRD27 (ankyrin repeat domain 27)", "reagent no.": 1, "total luciferase, z-score": 0.0238, "outcome": "inactive"}
{"target": "ANKRD27 (ankyrin repeat domain 27)", "reagent no.": 2, "total luciferase, z-score": -0.192, "outcome": "inactive"}
{"target": "ANKRD27 (ankyrin repeat domain 27)", "reagent no.": 3, "total luciferase, z-score": 1.12, "outcome": "inactive"}
{"target": "ASF1A (anti-silencing function 1A histone chaperone)", "reagent no.": 1, "total luciferase, z-score": 0.689, "outcome": "inactive"}
{"target": "ASF1A (anti-silencing function 1A histone chaperone)", "reagent no.": 2, "total luciferase, z-score": 6.03, "outcome": "active"}
{"target": "ASF1A (anti-silencing function 1A histone chaperone)", "reagent no.": 3, "total luciferase, z-score": 2.48, "outcome": "inactive"}
{"target": "TRIM50 (tripartite motif containing 50)", "reagent no.": 1, "total luciferase, z-score": 0.00314, "outcome": "inactive"}
{"target": "TRIM50 (tripartite motif containing 50)", "reagent no.": 2, "total luciferase, z-score": -0.0705, "outcome": "inactive"}
{"target": "TRIM50 (tripartite motif containing 50)", "reagent no.": 3, "total luciferase, z-score": 0.122, "outcome": "inactive"}
{"target": "NTMT1 (N-terminal Xaa-Pro-Lys N-methyltransferase 1)", "reagent no.": 1, "total luciferase, z-score": 1.18, "outcome": "inactive"}
{"target": "NTMT1 (N-terminal Xaa-Pro-Lys N-methyltransferase 1)", "reagent no.": 2, "total luciferase, z-score": 0.174, "outcome": "inactive"}
{"target": "NTMT1 (N-terminal Xaa-Pro-Lys N-methyltransferase 1)", "reagent no.": 3, "total luciferase, z-score": -1.04, "outcome": "inactive"}
{"target": "ELF3 (E74 like ETS transcription factor 3)", "reagent no.": 1, "total luciferase, z-score": 1.09, "outcome": "inactive"}
{"target": "ELF3 (E74 like ETS transcription factor 3)", "reagent no.": 2, "total luciferase, z-score": 0.747, "outcome": "inactive"}
{"target": "ELF3 (E74 like ETS transcription factor 3)", "reagent no.": 3, "total luciferase, z-score": 4.11, "outcome": "active"}
{"target": "ADCK1 (aarF domain containing kinase 1)", "reagent no.": 1, "total luciferase, z-score": 0.339, "outcome": "inactive"}
{"target": "ADCK1 (aarF domain containing kinase 1)", "reagent no.": 2, "total luciferase, z-score": 1.42, "outcome": "inactive"}
{"target": "ADCK1 (aarF domain containing kinase 1)", "reagent no.": 3, "total luciferase, z-score": -0.635, "outcome": "inactive"}
{"target": "BRMS1L (BRMS1 like transcriptional repressor)", "reagent no.": 1, "total luciferase, z-score": -0.462, "outcome": "inactive"}
{"target": "BRMS1L (BRMS1 like transcriptional repressor)", "reagent no.": 2, "total luciferase, z-score": 0.6, "outcome": "inactive"}
{"target": "BRMS1L (BRMS1 like transcriptional repressor)", "reagent no.": 3, "total luciferase, z-score": -0.123, "outcome": "inactive"}
{"target": "LYPD2 (LY6/PLAUR domain containing 2)", "reagent no.": 1, "total luciferase, z-score": 5.21, "outcome": "active"}
{"target": "LYPD2 (LY6/PLAUR domain containing 2)", "reagent no.": 2, "total luciferase, z-score": 0.605, "outcome": "inactive"}
{"target": "LYPD2 (LY6/PLAUR domain containing 2)", "reagent no.": 3, "total luciferase, z-score": 2.41, "outcome": "inactive"}
{"target": "MRPL38 (mitochondrial ribosomal protein L38)", "reagent no.": 1, "total luciferase, z-score": 0.208, "outcome": "inactive"}
{"target": "MRPL38 (mitochondrial ribosomal protein L38)", "reagent no.": 2, "total luciferase, z-score": -1.35, "outcome": "inactive"}
{"target": "MRPL38 (mitochondrial ribosomal protein L38)", "reagent no.": 3, "total luciferase, z-score": -0.301, "outcome": "inactive"}
{"target": "SELENOI (selenoprotein I)", "reagent no.": 1, "total luciferase, z-score": -0.635, "outcome": "inactive"}
{"target": "SELENOI (selenoprotein I)", "reagent no.": 2, "total luciferase, z-score": -0.0389, "outcome": "inactive"}
{"target": "SELENOI (selenoprotein I)", "reagent no.": 3, "total luciferase, z-score": 0.366, "outcome": "inactive"}
